Measured values: article doi:10.1101/192500 (bioRxiv, 2018)
These are yes or no findings as the source states them, for the method shown. Binding seen in cells or lysates may run through a third protein. A result given as binding can be weak or reduced; the word gives no strength.

Amino acid sequences for entries named in this document (tags omitted). A change or cut given only in a name is not applied to a line headed by its entry.
UniProt P76506: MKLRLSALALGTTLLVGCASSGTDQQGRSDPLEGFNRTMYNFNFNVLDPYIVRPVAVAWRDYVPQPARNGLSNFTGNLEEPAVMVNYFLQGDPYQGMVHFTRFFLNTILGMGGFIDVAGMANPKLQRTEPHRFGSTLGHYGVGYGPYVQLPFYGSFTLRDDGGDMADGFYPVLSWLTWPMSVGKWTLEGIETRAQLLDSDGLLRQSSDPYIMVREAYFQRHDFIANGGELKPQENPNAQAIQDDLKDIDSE

Target: MlaA 3G3P/mlaA* combination mutant-His (E. coli) (UniProt P76506)
Assay: pull-down

binding: binds
B1: OmpC (wild type, from the chromosomal locus) (protein, UniProt P06996 22-367)
chain: AEVYNKDGNKLDLYGKVDGLHYFSDNKDVDGDQTYMRLGFKGETQVTDQLTGYGQWEYQIQGNSAENENNSWTRVAFAGLKFQDVGSFDYGRNYGVVYDVTSWTDVLPEFGGDTYGSDNFMQQRGNGFATYRNTDFFGLVDGLNFAVQYQGKNGNPSGEGFTSGVTNNGRDALRQNGDGVGGSITYDYEGFGIGGAISSSKRTDAQNTAAYIGNGDRAETYTGGLKYDANNIYLAAQYTQTYNATRVGSLGWANKAQNFEAVAQYQFDFGLRPSLAYLQSKGKNLGRGYDDEDILKYVDVGATYYFNKNMSTYVDYKINLLDDNQFTRDAGINTDNIVALGLVYQF
